Binding signal data for 42 sequences are collected here from article PMC7819943, “Rice protein-binding microarrays: a tool to detect cis-acting elements near promoter regions in rice”.

Protein sequences, listed by entry. Tags and fused reporters are not part of them.
UniProt Q0JBA9, entry or part of it: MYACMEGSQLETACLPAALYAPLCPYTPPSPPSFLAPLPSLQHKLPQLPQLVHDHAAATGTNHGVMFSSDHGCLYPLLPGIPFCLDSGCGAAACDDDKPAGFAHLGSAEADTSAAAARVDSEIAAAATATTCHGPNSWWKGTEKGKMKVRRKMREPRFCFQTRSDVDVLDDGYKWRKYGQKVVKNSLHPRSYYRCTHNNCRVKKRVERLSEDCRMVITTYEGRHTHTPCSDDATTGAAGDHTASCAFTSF

The other results are listed elsewhere or left out.

This assay has as its target OsWRKY34 (Oryza sativa, UniProt Q0JBA9 1-250). Description: protein-binding microarray (RPBM); PBS, 2% BSA, 51.3 ng/ul salmon testes DNA, 50 uM zinc acetate, 200 nM TF, 25 C, 1 h; high values mean tight binding. The following applies: protein: recombinant; tags: N-terminal polyhistidine and DsRed monomer fusion (pET32a); label: CyDye5-dUTP incorporated in the synthesized complementary strand; 3' TTTTT single-stranded linker to array surface; dsDNA, one strand shown. In outline: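 Transcription factors, each fused N-terminally to a polyhistidine tag and DsRed, were expressed in E. coli BL21-CodonPlus and purified on Ni–NTA. A custom Agilent array was made double-stranded by primer extension with Cy5-dUTP and blocked with 2% BSA. It was incubated with 200 nM protein in PBS, 2% BSA, salmon testes DNA and 50 µM zinc acetate at 25 °C for 1 h, then washed. The binding signal is per-feature fluorescence intensity (arbitrary units) read on an Axon 4000B scanner.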
With “CAGTGGCTTGTGCATGCTCCTTTCTCCAATTTCATTATTACGGAGTCACCTAGTGCAG”, the binding signal was 8630 fluorescence intensity (a.u.).
On to “ACTGAGGGAGGGGCACTTCCGTCATTTCGTATAAGCGTATCGGAGTCACCTAGTGCAG”, for which the binding signal was 9700 fluorescence intensity (a.u.).
Under “CGGGGCCATCTACCTTCTCATTCACCTCTGCACATCGTCGCGGAGTCACCTAGTGCAG” stands 11000 fluorescence intensity (a.u.); under “TAATGAGACCGATTGCTTTTTCTTTAGTTTGATATATATACGGAGTCACCTAGTGCAG”, 8360 fluorescence intensity (a.u.); under “ACTTTCACGCTCATCGCCACGTCGACTTTCTCCGCTACAACGGAGTCACCTAGTGCAG”, 11900 fluorescence intensity (a.u.).
As for “CATTCATTTGTTTTATTACTGTCTAAACACAGTCACCTTTCGGAGTCACCTAGTGCAG”, the binding signal is 8420 fluorescence intensity (a.u.).
As for “GTCCATCCATTGTCACCAGATACCATTCATATACAAATTTCGGAGTCACCTAGTGCAG”, the binding signal was 10300 fluorescence intensity (a.u.).
As to “AAAACCACCTGGAATTACCTACAGCCTTGCTAAAGATTTTCGGAGTCACCTAGTGCAG”, the binding signal is 9870 fluorescence intensity (a.u.).
Under “CCCTCACTGCCTCTCTCCTGAGACCGACAGCACTCATCTGCGGAGTCACCTAGTGCAG” stands 8420 fluorescence intensity (a.u.); under “AACCTTTTATTCCTTCTTTCTACTTGCACTTTACTATATTCGGAGTCACCTAGTGCAG”, 10500 fluorescence intensity (a.u.); under “TTTCTGTTTAACGTCAACCCGGCTGTTTTCGCCCGGTCAACGGAGTCACCTAGTGCAG”, 9040 fluorescence intensity (a.u.).
In the case of “AGTACTCCAGCAGACCAGCACATTCATTTCGTTAATTATACGGAGTCACCTAGTGCAG” it was 11800 fluorescence intensity (a.u.); in that of “TCTTGCGTTTCGATTTCTTTTTATTATTTTCCTGAGAGAGCGGAGTCACCTAGTGCAG”, 8630 fluorescence intensity (a.u.).
On to “TTAGTTTTCTGTTTGCTACACTGAGGTGGTTTTCATGTCACGGAGTCACCTAGTGCAG”, for which the binding signal was 10100 fluorescence intensity (a.u.).
Under “TTCATCTCCGCGACCGAAGTCCACTGCCTAGTCGTCACATCGGAGTCACCTAGTGCAG” stands 8830 fluorescence intensity (a.u.); under “TTTGCGCCGTTGACTCTGCCGCGTATTGCTCGGTACTCCACGGAGTCACCTAGTGCAG”, 12500 fluorescence intensity (a.u.).
As for “CTACTATACGTCGATGGGGAGGGAGGGAGGGTGGCTGTAGCGGAGTCACCTAGTGCAG”, the binding signal is 26400 fluorescence intensity (a.u.).
In the case of “AATCTTCTGCCATGCTCAAATTTGGCTTTCTGTGCACTGTCGGAGTCACCTAGTGCAG” it was 9110 fluorescence intensity (a.u.); in that of “GCTTTCGTGATTACGACTTACCGTCGTGCTGCGCCCTTCACGGAGTCACCTAGTGCAG”, 8700 fluorescence intensity (a.u.).
Under “ATGTGTTGTATGAATGTTGTCAATTTTTTCCAGATTTTTTCGGAGTCACCTAGTGCAG” stands 10700 fluorescence intensity (a.u.); under “CGTTCGATTTAACTTCCCGTCTTGTTAAGCTTGGCCACATCGGAGTCACCTAGTGCAG”, 13700 fluorescence intensity (a.u.); under “TCGACCGCATCTCATCTCATCTCACCGTTGGATCGCGCGCCGGAGTCACCTAGTGCAG”, 9670 fluorescence intensity (a.u.).
For the sequence “ATTTTGGGTTGCCAAGTTAGGCCAATAAGGGGAGGGATTTCGGAGTCACCTAGTGCAG”, the binding signal was 8110 fluorescence intensity (a.u.).
Under “TTACACATTTCTTTTTCATCACTGCTGATATGTTATCCTTCGGAGTCACCTAGTGCAG” stands 9940 fluorescence intensity (a.u.); under “CGTTGTCCCACTTCGCCTGGCTGCTCCGCTTGCCGCCATCCGGAGTCACCTAGTGCAG”, 8880 fluorescence intensity (a.u.).
With “ATCGTCGTCTCCTTCGGCTCGCGTCGCCACTGCCGCCGCTCGGAGTCACCTAGTGCAG”, the binding signal is 10500 fluorescence intensity (a.u.).
In the case of “CCGCCATTTTTCTTCTCATCGTCTCCACCGCGCGCGCCACCGGAGTCACCTAGTGCAG” it was 9390 fluorescence intensity (a.u.).
Under “CACCATCCCAAAATATTTGACGCCGTTGACTTTTTTAAAACGGAGTCACCTAGTGCAG” stands 14000 fluorescence intensity (a.u.).
Under “AGGTGTGTGAATTGTGATGGAGGGAGAGAGAGAGAGATAGCGGAGTCACCTAGTGCAG” stands 8440 fluorescence intensity (a.u.).
Regarding “GTCGTCAACCGCTGCTTGCTTATAAGTATCATGAGAAGAACGGAGTCACCTAGTGCAG”, the binding signal was 8410 fluorescence intensity (a.u.).
In the case of “CACACACAACTTCAGATCAATTTCGATACACCCTCCGAGACGGAGTCACCTAGTGCAG”, the binding signal was 8090 fluorescence intensity (a.u.).
In the case of “CTGTATGGCCACCGTCGCAGCTCGTCCTACACGTTTCTCACGGAGTCACCTAGTGCAG” it was 10600 fluorescence intensity (a.u.).
In the case of “TTTAATTCTAGAATCATGTATTTTTCCTATTCCTCTATTTCGGAGTCACCTAGTGCAG” it was 8040 fluorescence intensity (a.u.); in that of “GACAAACAACAGTCCACGTCACCTTTATCCATCTTTTTTTCGGAGTCACCTAGTGCAG”, 9020 fluorescence intensity (a.u.).
Take “TGTATATCTGCTACCTCAACATTTTTCTCACCCACCGACCCGGAGTCACCTAGTGCAG”: the binding signal was 8220 fluorescence intensity (a.u.).
In the case of “GCTGGTAGTGGACACAGAGAGTTCTGCACTCTCTTTCACTCGGAGTCACCTAGTGCAG” it was 9320 fluorescence intensity (a.u.); in that of “TAAATATTTGACACCGTTGACTTTTTACACATATTTGACCCGGAGTCACCTAGTGCAG”, 35100 fluorescence intensity (a.u.); in that of “TTGTTGCAGCCTCGCAGTAAGATTCCTTGTTTTTCTTAGCCGGAGTCACCTAGTGCAG”, 8620 fluorescence intensity (a.u.).
In the case of “ACGTTGTGTCGCGGCAAAGGTATGTTTGGTCTTTTCTGAGCGGAGTCACCTAGTGCAG” it was 8570 fluorescence intensity (a.u.); in that of “TGGCTTCCCCGGTCACTGCACCACCACCGGCACCGGCAACCGGAGTCACCTAGTGCAG”, 8580 fluorescence intensity (a.u.); in that of “CTCTCATGCCACTACCGTCAGTTGACCGTGCGTTGATCGTCGGAGTCACCTAGTGCAG”, 10500 fluorescence intensity (a.u.).
Under “TCCCGCATATTACTCGTCGCCACCGCGGTCACCGCCCCTCCGGAGTCACCTAGTGCAG” stands 9000 fluorescence intensity (a.u.).
